Measured values published in paper PMC5727297.
Results are given in words; binding and its absence hold for the method and conditions named. Some results given as binding are weak or reduced against the parent protein; the word gives no strength.

Biological target: SOD-like domain of human CCS (CCS-D2), expressed in human cells (human) (UniProt O14618)
Assay: NMR of cell lysates; 1H-15N SOFAST-HMQC on lysates (freeze-thaw in PBS, cleared) of the HEK293T cells co-expressing [U-15N]-labelled SOD1 (WT or mutant) and CCS-D2, 950 MHz

binding: binds
B1: SOD-like domain of human CCS (CCS-D2), expressed in human cells (domain or fragment, UniProt O14618 84-234)
chain: QNLGAAVAILGGPGTVQGVVRFLQLTPERCLIEGTIDGLEPGLHGLHVHQYGDLTNNCNSCGNHFNPDGASHGGPQDSDRHRGDLGNVRADADGRAIFRMEDEQLKVWDVIGRSLIIDEGEDDLGRGGHPLSKITGNSGERLACGIIARSA
